Reference: paper PMC7059865
No constants are given. Whether binding was seen depends on the method and setting. Some entries that bind do so weakly or less than the wild type. Where a sequence is shown, tags or fusion partners need not be part of it.

Biological target: T1, Arabidopsis VPS38 (Vacuolar Protein Sorting-38 subunit of the class-III PtdIns-3 kinase complex), fused to the GAL4 DNA-binding domain (Arabidopsis) (UniProt Q8S9J3)
T1 sequence: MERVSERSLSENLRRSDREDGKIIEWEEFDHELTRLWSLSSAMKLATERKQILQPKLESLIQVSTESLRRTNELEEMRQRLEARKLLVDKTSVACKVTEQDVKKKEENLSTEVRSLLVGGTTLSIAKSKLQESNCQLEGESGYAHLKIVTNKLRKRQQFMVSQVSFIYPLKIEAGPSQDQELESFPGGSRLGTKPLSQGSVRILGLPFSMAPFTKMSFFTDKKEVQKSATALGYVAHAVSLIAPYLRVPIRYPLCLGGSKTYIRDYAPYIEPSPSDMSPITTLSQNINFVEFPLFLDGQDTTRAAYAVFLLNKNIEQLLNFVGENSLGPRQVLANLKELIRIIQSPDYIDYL
Assay: two-hybrid; GAL4-based Y2H; VPS38-BD and ATG6-AD co-expressed in yeast; growth on synthetic complete medium -L-W-H with 3-amino-1,2,4-triazole (+3AT)

binding: binds
B1: Arabidopsis ATG6, fused to the GAL4 activation domain (protein, UniProt Q9M367 1-517)
chain: MRKEEIPDKSRTIPIDPNLPKWVCQNCHHSLTIVGVDSYAGKFFNDPPPSATQGSSIHGANSVLGSTRMDNSFVVLPRHKPPQSQGIPPRPRGASSPQPDATQSGKAMEESFVVVYKSEPVSDSGGSHNLSLEVGQNGPLHSNTSGFNATINVLTRAFDIARTQTQVEQPLCLECMRVLSDKLEKEVEDVTRDVEAYEACVQRLEGETQDVLSEADFLKEKKKIEEEERKLVAAIEETEKQNAEVNHQLKELEFKGNRFNELEDRYWQEFNNFQFQLIAHQEERDAILAKIEVSQAHLELLNKTNVLIDAFPIRNDGEFGTINNFRLGRLPAIKVEWDEINAAWGQACLLLHTMCNYFRPKFQCQVKIQPMGSYPRIVDSNNETYELFGPVNLFWSTRYDKAMTLYLMCLKDFADFANSKDQENNIPPDNCLNLPYKIEKDKVLGYSITQSFNKQESWTKALKYTLCNLKWALYWFVGNTNFQPLSATVSLPSNISAAGSLYAKRGPDSSKPSCKKT
